The results in this text go back to paper PMC6858727.

Protein sequences, listed by entry. Tags and fused reporters are not part of them.
UniProt Q93009: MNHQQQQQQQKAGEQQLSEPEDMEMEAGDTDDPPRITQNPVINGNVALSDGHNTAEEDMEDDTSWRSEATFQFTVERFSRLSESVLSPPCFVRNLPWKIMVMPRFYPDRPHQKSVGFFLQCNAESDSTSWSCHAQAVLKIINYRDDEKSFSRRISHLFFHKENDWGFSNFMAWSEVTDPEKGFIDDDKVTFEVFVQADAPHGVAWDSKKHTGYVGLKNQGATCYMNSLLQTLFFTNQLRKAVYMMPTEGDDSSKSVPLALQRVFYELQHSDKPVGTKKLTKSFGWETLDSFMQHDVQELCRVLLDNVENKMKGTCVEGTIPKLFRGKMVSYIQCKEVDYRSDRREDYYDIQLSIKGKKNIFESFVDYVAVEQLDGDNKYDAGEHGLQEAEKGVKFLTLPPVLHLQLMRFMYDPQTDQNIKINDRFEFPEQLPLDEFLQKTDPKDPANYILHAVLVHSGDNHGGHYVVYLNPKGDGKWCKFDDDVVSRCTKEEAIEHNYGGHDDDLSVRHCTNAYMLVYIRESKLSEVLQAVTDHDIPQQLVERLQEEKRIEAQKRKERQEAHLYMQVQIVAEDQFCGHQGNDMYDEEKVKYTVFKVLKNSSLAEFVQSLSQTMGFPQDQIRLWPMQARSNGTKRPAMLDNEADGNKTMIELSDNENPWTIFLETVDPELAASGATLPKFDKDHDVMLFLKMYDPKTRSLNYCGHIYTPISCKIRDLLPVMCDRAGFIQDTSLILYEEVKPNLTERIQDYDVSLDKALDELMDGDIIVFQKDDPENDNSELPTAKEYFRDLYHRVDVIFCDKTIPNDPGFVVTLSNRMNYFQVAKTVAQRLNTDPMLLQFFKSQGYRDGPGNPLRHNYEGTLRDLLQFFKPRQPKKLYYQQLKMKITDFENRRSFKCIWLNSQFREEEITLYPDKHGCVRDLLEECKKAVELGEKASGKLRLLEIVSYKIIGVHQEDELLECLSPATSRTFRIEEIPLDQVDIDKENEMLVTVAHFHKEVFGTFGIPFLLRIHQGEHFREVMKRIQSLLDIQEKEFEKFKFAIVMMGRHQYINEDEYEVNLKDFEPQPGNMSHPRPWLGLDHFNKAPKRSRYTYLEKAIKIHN

The target in assay [1] is Ubiquitin specific protease 7 (USP7), endogenous in DU145 cells (human (endogenous in DU145)) (UniProt Q93009). As to the kind of experiment: co-IP; endogenous proteins, DU145 lysate in RIPA buffer; PLK1 or USP7 antibody at 4 °C for 12 h, protein A/G magnetic beads; immunoblot. A general note: In western blotting, separated proteins are transferred to a membrane and probed.

In assay [2] the target is Polo-like kinase 1 (PLK1), endogenous in DU145 cells (human (endogenous in DU145)) (UniProt P53350). The assay is described as above.
The target in the next assay is GST-PLK1(AA) (UniProt P53350). As to the kind of experiment: pull-down; GST fusion proteins on glutathione-sepharose resins incubated with DU145 cell lysates at 4 °C for 12 h, washed four times; blot with anti-USP7; only the target purified.
The target in a further assay is GST-PLK1(FL) (UniProt P53350). The description is as above.

Results are given in words; binding and its absence hold for the method and conditions named. In cells and extracts the contact can be indirect. Some entries that bind do so weakly or less than the wild type.

On to “Polo-like kinase 1 (PLK1), endogenous in DU145 cells (from UniProt P53350 1-603) (enzyme)”, for which the binding result in assay [1] was “binds”.

For “Ubiquitin specific protease 7 (USP7), endogenous in DU145 cells (from UniProt Q93009 1-1102) (enzyme)”, the binding result in assay [2] was “binds”; with GST-PLK1(AA), “no binding”; with GST-PLK1(FL), “binds”.
